The results in this text go back to paper doi:10.1101/2024.02.28.582571.

Sequences of proteins named here, by UniProt entry; tags and fusion partners are left off.
UniProt A0ABX6F2N8: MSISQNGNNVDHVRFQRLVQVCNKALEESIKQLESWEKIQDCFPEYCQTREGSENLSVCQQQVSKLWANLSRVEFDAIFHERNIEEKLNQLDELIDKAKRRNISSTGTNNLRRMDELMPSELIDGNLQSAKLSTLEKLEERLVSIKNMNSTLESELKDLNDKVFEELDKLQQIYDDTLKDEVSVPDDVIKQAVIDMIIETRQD
UniProt A0ABX6ES48: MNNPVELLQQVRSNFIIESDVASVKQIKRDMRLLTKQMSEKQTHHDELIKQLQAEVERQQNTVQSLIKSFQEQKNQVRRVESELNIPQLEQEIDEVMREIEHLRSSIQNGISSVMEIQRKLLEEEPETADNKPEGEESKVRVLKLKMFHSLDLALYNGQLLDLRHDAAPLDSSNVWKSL

No constants are given. Whether binding was seen depends on the method and setting. For part of these data: In cells and extracts the contact can be indirect. Some entries that bind do so weakly or less than the wild type.

In assay [1] the target is Dsn1-6His-3M3DK (K. marxianus Dsn1 tagged at the endogenous locus) (Kluyveromyces marxianus). The assay is described as follows: co-IP; Dsn1-6His-3M3DK captured from lysate of benomyl-treated K. marxianus on α-M3DK Dynabeads (90 min, 4 °C), washed in Buffer H (25 mM HEPES pH 8.0, 150 mM KCl, 2 mM MgCl2, 0.1% NP-40, 15% glycerol), eluted with 3xM3DK peptide; immunoblot with α-Nnf1, α-Spc24, α-Okp1. (In general: Immunoblotting shows a protein as a band on a membrane.)

Assay [2] has the same target. The assay is described as follows: immunogold labelling with negative stain electron microscopy; kinetochores purified via Dsn1-6His-3M3DK from strains with or without Ndc80-V5, incubated with α-V5 antibody on 10 nm gold (1:100, 30 min, room temperature), negative stain.

Take “Nnf1 (K. marxianus) (from UniProt A0ABX6F2N8 1-203)”: the binding entry in assay [1] is on record as “binds”.
On to “Spc24 (K. marxianus) (from UniProt A0ABX6ES48 1-179)”, for which, in assay [1], the binding result is given as “binds”.
As to “Ndc80-6xHis-3xV5 (K. marxianus Ndc80 tagged at the endogenous locus) (from UniProt A0ABX6F1V2 1-676)”, in assay [2], the binding result was “binds”.
